# Library screen at single concentrations

Protein sequences, listed by entry. Tags and fused reporters are not part of them. Residues count along the entry.
UniProt P9WPC5, whole entry: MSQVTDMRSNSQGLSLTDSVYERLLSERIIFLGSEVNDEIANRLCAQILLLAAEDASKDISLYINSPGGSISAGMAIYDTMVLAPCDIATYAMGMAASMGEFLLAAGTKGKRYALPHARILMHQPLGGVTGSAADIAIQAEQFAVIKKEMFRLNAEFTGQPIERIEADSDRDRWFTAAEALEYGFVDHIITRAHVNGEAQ
UniProt P9WPC3, whole entry partner: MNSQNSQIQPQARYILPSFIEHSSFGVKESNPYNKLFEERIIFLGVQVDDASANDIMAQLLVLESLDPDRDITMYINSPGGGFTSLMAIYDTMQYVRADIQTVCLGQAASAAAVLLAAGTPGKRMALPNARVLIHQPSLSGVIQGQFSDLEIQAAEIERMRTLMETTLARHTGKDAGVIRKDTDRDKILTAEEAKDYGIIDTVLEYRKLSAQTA
UniProt Q4DA54, 1-478: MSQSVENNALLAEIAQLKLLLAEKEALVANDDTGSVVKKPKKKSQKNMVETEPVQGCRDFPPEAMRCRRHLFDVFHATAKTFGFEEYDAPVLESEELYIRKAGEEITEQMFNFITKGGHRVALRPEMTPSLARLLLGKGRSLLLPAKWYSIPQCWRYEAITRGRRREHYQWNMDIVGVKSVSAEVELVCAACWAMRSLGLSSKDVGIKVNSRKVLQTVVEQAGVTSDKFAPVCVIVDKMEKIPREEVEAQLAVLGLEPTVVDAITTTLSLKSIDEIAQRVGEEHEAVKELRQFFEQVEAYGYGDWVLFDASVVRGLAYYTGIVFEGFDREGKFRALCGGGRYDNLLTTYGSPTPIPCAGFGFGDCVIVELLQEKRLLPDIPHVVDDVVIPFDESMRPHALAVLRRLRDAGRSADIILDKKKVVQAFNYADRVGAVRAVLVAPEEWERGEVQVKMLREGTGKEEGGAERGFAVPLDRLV
UniProt P9WNZ1, whole entry: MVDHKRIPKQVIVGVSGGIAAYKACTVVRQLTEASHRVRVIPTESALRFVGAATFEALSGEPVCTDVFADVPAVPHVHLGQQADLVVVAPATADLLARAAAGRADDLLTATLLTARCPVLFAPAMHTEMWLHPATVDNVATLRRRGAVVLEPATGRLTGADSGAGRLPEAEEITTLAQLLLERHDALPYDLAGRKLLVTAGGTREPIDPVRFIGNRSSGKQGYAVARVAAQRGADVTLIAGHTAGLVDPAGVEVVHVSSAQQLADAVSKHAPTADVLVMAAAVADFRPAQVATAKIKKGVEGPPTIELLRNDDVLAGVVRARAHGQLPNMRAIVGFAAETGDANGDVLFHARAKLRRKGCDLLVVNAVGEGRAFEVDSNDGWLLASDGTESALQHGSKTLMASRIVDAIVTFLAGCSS

The filed quantity is “Percent Effect” (%).
The record does not define 0% and 100%; most values in the screen are far below 50% and negative numbers occur (in some assays of this library far below -100).
The compounds are a random part of those screened.
A dash means the value is not listed here; it may have been measured.

A: 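Protease assay of ClpP1P2, read by the AMC dye that it sets free. Target: ClpP1P2, Mycobacterium tuberculosis (UniProt P9WPC5 and UniProt P9WPC3). Tested at 50 µM. Direction is inferred from only a few compounds that gave an IC50; most scored high, so higher reads as stronger inhibition. Most other retested compounds had strongly negative values. About 69,000 compounds were tested under these conditions; 0.015% (about 10) showed 50% or more at least once.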
B: 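Assay of Toxoplasma gondii numbers, read through their beta-galactosidase reporter with a colour substrate. Compounds at 10 µM. The record gives no direction; the compounds picked for IC50 retests had high values, so higher reads as fewer parasites. About 67,000 compounds were tested under these conditions; 0.38% (about 260) showed 50% or more at least once.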
C: 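Cell assay of Leishmania donovani living inside macrophages; the read-out is not stated. Compounds at 30 µM. The record gives no direction; compounds that gave an IC50 in retests scored well above the rest, so higher reads as stronger inhibition. Size under these conditions: about 69,000 compounds, about 1,000 of them at 50% or above in at least one test.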
D: 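Enzyme assay of histidyl-tRNA synthetase; the read-out is not stated. Target: Histidine-tRNA ligase, Trypanosoma cruzi CL Brener (UniProt Q4DA54). Concentration: 30 µM. Direction is inferred from retests: higher values go with stronger inhibition. About 69,000 compounds were tested under these conditions; 0.045% (about 31) showed 50% or more at least once.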
E: 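Coenzyme A biosynthesis protein CoaBC, Mycobacterium tuberculosis (UniProt P9WNZ1). Enzyme assay of CoaBC with a phosphate dye (Biomol Green) read at 650 nm. Compounds at 30 µM. Higher reads as stronger inhibition, judged from the few compounds that gave an IC50. Most strong results did not repeat in a second test. About 67,000 compounds were tested under these conditions; 0.06% (about 40) showed 50% or more at least once.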

compound	A	B	C	D	E
O=C(O)CC(NC(=O)c1cc(Br)c[nH]1)c1ccccc1 (stereo unspecified)	3.923%	7.724%	9.829%	0.578%	9.504%
CCCn1nc(C)c(CN(CCN(C)C)Cc2ccccn2)c1C	-7.61%	-3.996%	-10.18%	8.046%	1.214%
CC(=O)N1CCc2ncn(C)c2C1C(=O)N1CCCC1 (stereo unspecified)	-3.641%	-	-	2.299%	5.123%
CN(C)S(=O)(=O)c1ccc(CN2CCC(c3ccccc3)C2)o1 (stereo unspecified)	-6.623%	11.79%	-29.96%	3.665%	10.49%
Cc1ccc2cnn(CCC(=O)Nc3c(C)nn(C)c3C)c2c1	-13.97%	9.645%	1.34%	3.347%	2.727%
c1ccc(CN(Cc2ncc[nH]2)Cc2nccs2)cc1	-39.57%	-33.35%	26.87%	3.636%	2.81%
[H][C@]12CC[C@]([H])(CN(C(=O)c3ccc(Cl)cc3)C1)N(CCOC)C2	-	5.239%	10.77%	-	-
Cc1ccc(C2COCCN2C(=O)c2ccc(C)s2)o1 (stereo unspecified)	-7.914%	-1.86%	3.312%	13.33%	-1.24%
Cl.Cl.O=C(NCc1cncc2c1CCN(Cc1cccs1)C2)C1CC1	-	-0.721%	10.79%	-	-
[H][C@@]12COC(=O)N1CCN(C(=O)NC(C)C)C2	-	-5.082%	-23.37%	-	-
Cc1cccc(NC(=O)C2(n3cnnn3)CCCCC2)n1	-11.49%	6.54%	-8.498%	4.878%	5.063%
c1cncc(Cc2nnc3n2CCN(CC2CCOC2)CC3)c1 (stereo unspecified)	-2.924%	13.33%	7.278%	1.293%	1.141%
COc1ccc(Br)cc1CCC(=O)N1CCCC(O)C1 (stereo unspecified)	1.142%	7.537%	6.225%	-1.657%	12.36%
CCC[C@H]1CN(CCS(C)(=O)=O)C[C@@H]1NC(=O)Cn1cc(C)cn1	2.196%	4.98%	5.49%	5.051%	0%
CCNC(=O)[C@@H]1C[C@@H](N)CN1C(=O)c1[nH]c2ccccc2c1CC	-14.43%	-24.37%	4.726%	0.8929%	0.3774%
Cc1cc(CN(C)C(=O)NC2CCN(C3CC3)CC2)no1	-2.236%	-1.095%	21.37%	7.331%	7.105%
O=C(O)C(F)(F)F.[H][C@@]12C[C@H](C(=O)N3CCCCO3)CN(Cc3ccc(F)cc3)[C@]1([H])CCO2	-	-15.13%	32.15%	-	-
c1cncc(C2CC3(CCN(c4cnccn4)CC3)c3ccccc32)c1 (stereo unspecified)	-12.03%	-	-	17.18%	-
COc1cccc(OC)c1C(=O)NCC(c1cccn1C)N1CCCC1 (stereo unspecified)	-0.5726%	22.3%	6.38%	12%	5.402%
COc1cccc(-n2nnc(C(=O)N3CCOC(C)C3)c2C)c1 (stereo unspecified)	-4.021%	-5.399%	13.27%	6.158%	3.947%
O=C(O)C(F)(F)F.[H][C@@]12C[C@H](C(=O)NC)[C@@]([H])(CN(Cc3ccc(OC)cc3)C1)O2	-	0.4131%	27.77%	-	-
Clc1cccc(-n2cnnn2)c1N1CCCC1	-12.25%	2.621%	7.16%	-2.212%	-9.112%
CC(O)CN1CCC(CNCc2ccccc2Br)CC1 (stereo unspecified)	17.23%	13.01%	58.06%	-1.527%	6.736%
O=C(C1CCOC1)N1CCC2(CC1)CN(c1ncccn1)CCO2 (stereo unspecified)	19.68%	-	-	12.24%	1.112%
CN1CCC(c2nnc(CN3CCOCC3)n2C)CC1	3.305%	-16.02%	29.77%	6.098%	0.3797%
O=C(O)C(F)(F)F.[H][C@@]12C[C@H](C(=O)N3CCCCO3)CN(Cc3ccccc3C)[C@]1([H])CCO2	-	-31.55%	6.24%	-	-
Cn1cc(C(=O)N2CC[C@@H]3[C@@H]2CCN3Cc2cccc(C#N)c2)cn1	-1.848%	-	-	9.184%	-9.023%
CNC(=O)CCS(=O)(=O)Cc1cc(Cl)c2c(c1)OCCO2	-11.42%	-2.764%	6.265%	8%	2.887%
Cc1noc(C)c1CN1CCc2ncnc(-c3ccc(F)cc3)c2CC1.O=C(O)C(F)(F)F	-	-35.04%	17.55%	-	-
Cc1cc(CN2CCC(c3ccnn3CCO)CC2)no1	5.969%	-	27.37%	0%	6.17%
O=C1[C@@H]2CN(c3ncccc3Cl)C[C@]2(C(=O)O)CN1CC1CC1	-24.17%	-	-	13.6%	0.6494%
CCOCC1c2c(cnn2C)CCN1C(=O)c1ccncn1.O=C(O)C(F)(F)F (stereo unspecified)	-	-0.6915%	13.69%	-	-
CC(C)c1cc(N2CCC3(CC2)CN(C)CCN3C)ncn1	-4.523%	-6.956%	5.062%	0%	-6.02%
CCN(CC)CC1CN(Cc2cccc(C#N)c2)Cc2nccn2C1.O=C(O)C(F)(F)F.O=C(O)C(F)(F)F (stereo unspecified)	-	-8.545%	15.22%	-	-
CNC(=O)[C@@]12CCC3(CCN(S(C)(=O)=O)CC3)[C@@H]1CN(S(C)(=O)=O)C2	11.95%	-	-	5.085%	-1.322%

Once more, the final 4:

Result for CCOCC1c2c(cnn2C)CCN1C(=O)c1ccncn1.O=C(O)C(F)(F)F (stereo unspecified) was B: -0.6915%; C: 13.69%.
Result for CC(C)c1cc(N2CCC3(CC2)CN(C)CCN3C)ncn1 was A: -4.523%; B: -6.956%; C: 5.062%; D: 0%; E: -6.02%.
Result for CCN(CC)CC1CN(Cc2cccc(C#N)c2)Cc2nccn2C1.O=C(O)C(F)(F)F.O=C(O)C(F)(F)F (stereo unspecified) was B: -8.545%; C: 15.22%.
Result for CNC(=O)[C@@]12CCC3(CCN(S(C)(=O)=O)CC3)[C@@H]1CN(S(C)(=O)=O)C2 was A: 11.95%; D: 5.085%; E: -1.322%.

The values are deposited in ChEMBL (CHEMBL3988442, “University of Dundee, Small-Polar-MMV Screening Library” (2021)).